# Test results as given in patent publication US8796180B2, “Aminoquinazoline compounds for combating invertebrate pests” (BASF SE, priority 2009, dated 2014).
# Some results were stated once for a whole list of compounds, not compound by compound.
# Experiments:
# Assay type in all cases: in vivo
# [1] = test system: Green Peach Aphid (Myzus persicae, mixed life stages); experiment: Green Peach Aphid spray test on bell pepper plants (B.7); conditions: test concentration 800 ppm; sprayed bell pepper plants; after 5 days
# [2] = test system: Diamondback moth (Plutella xylostella); experiment: Diamondback moth leaf-dip test on Chinese cabbage (B.4); conditions: test concentration 500 ppm; dipped Chinese cabbage leaves; mortality recorded 24, 72 and 120 hours after treatment
# Description: B.4 Diamondback moth (Plutella xylostella)
# The active compound was dissolved at the desired concentration in a mixture of 1:1 (vol:vol) distilled water:acetone. The test solution was prepared at the day of use.
# The activity against Plutella xylostella can be tested by the following experiments:
# Leaves of Chinese cabbage were dipped in test solution and air-dried. Treated leaves were placed in petri dished lined with moist filter paper. Mortality was recorded 24, 72, and 120 hours after treatment.
# [3] = test system: Vetch aphid (Megoura viciae); experiment: Vetch aphid broad bean leaf disk microtiter test (B.6); conditions: test concentration 800 ppm; broad bean leaf disks; 5 days
# [4] = test system: Mediterranean fruitfly (Ceratitis capitata); experiment: Mediterranean fruitfly insect diet microtiter test (B.9); conditions: test concentration 800 ppm; egg and larval mortality on insect diet; 5 days
# Description: B. 9 Mediterranean fruitfly (Ceratitis capitata)
# (§1) For evaluating control of Mediterranean fruitfly (Ceratitis capitata) the test unit consisted of microtiter plates containing an insect diet and 50-80 C. capitata eggs. The compounds were formulated using a solution containing 75% v/v water and 25% v/v DMSO. Different concentrations of formulated compounds were sprayed onto the insect diet at 5 μl, using a custom built micro atomizer, at two replications. After application, microtiter plates were incubated at about 28±1° C. and about 80±5% relative humidity for 5 days. Egg and larval mortality was then visually assessed.
# [5] = test system: Tobacco budworm (Heliothis virescens); experiment: Tobacco budworm insect diet microtiter test (B.10); conditions: test concentration 800 ppm; egg and larval mortality on insect diet; 5 days
# Description: B.10 Tobacco budworm (Heliothis virescens)
# as §1, with “of tobacco budworm (Heliothis virescens)” for “of Mediterranean fruitfly (Ceratitis capitata)”, “unit consists” for “unit consisted”, “of 96-well-microtiter” for “of microtiter”, “and 15-25 H. virescens” for “and 50-80 C. capitata”, “at 10” for “at 5”
# [6] = test system: Boll weevil (Anthonomus grandis); experiment: Boll weevil insect diet microtiter test (B.8); conditions: test concentration 800 ppm; egg and larval mortality on insect diet; 5 days
# [7] = test system: Orchid thrips (Dichromothrips corbetti); experiment: Orchid thrips floral-immersion test (B.5); conditions: test concentration 500 ppm; dipped orchid flowers; after 4 days
# [8] = test system: Southern Armyworm (Spodoptera eridania, 2nd instar larvae); experiment: Southern Armyworm foliar spray test on lima bean plants (B.1); conditions: 300 ppm, assessed 4 days after treatment
# Description: B.1 Southern Armyworm (Spodoptera eridania, 2nd instar larvae)
# The active compounds were formulated in cyclohexanone as a 10,0000 ppm solution supplied in 1.3 ml ABgene® tubes. These tubes were inserted into an automated electrostatic sprayer equipped with an atomizing nozzle and they served as stock solutions for which lower dilutions were made in 50% acetone: 50% water (v/v). A nonionic surfactant (Kinetic®) was included in the solution at a volume of 0.01% (v/v). Lima bean plants (variety Sieva) were grown 2 plants to a pot and selected for treatment at the 1st true leaf stage. Test solutions were sprayed onto the foliage by an automated electrostatic plant sprayer equipped with an atomizing spray nozzle. The plants were dried in the sprayer fume hood and then removed from the sprayer. Each pot was placed into perforated plastic bags with a zip closure. Ten to 11 armyworm larvae were placed into the bag and the bags zipped closed. Test plants were maintained in a growth room at 25° C. and 20-40% relative humidity for 4 days, avoiding direct exposure to fluorescent light (24 hour photoperiod) to prevent trapping of heat inside the bags. Mortality and reduced feeding were assessed 4 days after treatment, compared to untreated control plants.
# [9] = test system: Silverleaf Whitefly (Bemisia argentifolii, adult); experiment: Silverleaf Whitefly spray test on cotton plants (B.2); conditions: test concentration 500 ppm; sprayed cotton plants; assessed 3 days after treatment
structure (smiles),measurement,setting,value
CC(O)CCNc1nc(-c2ccc(Cl)cc2)nc2cc(C(F)(F)F)ccc12 (stereo not drawn) [I-33],mortality,[1],at least 50%
same,mortality in comparison with untreated controls,[2],at least 50%
CC(C)N(CCNc1nc(-c2ccc(Cl)cc2)nc2cc(C(F)(F)F)ccc12)C(C)C [I-35],mortality,[1],at least 50%
same,mortality,[3],at least 50%
CCCN(CC(=O)OC)c1nc(-c2ccc(Cl)cc2)nc2cc(C(F)(F)F)ccc12 [I-66],mortality,[3],at least 50%
CCC1(CC)CC1CNc1nc(-c2ccc(Cl)cc2)nc2cc(C(F)(F)F)ccc12 (stereo not drawn) [I-86],mortality,[3],at least 50%
FC(F)(F)c1ccc2c(NCCc3ccccc3)nc(-c3ccc(Cl)cc3)nc2c1 [I-87],mortality,[4],at least 50%
same,mortality,[3],at least 50%
CC(C)(C)OC(=O)NCCCCCNc1nc(-c2ccc(Cl)cc2)nc2cc(C(F)(F)F)ccc12 [I-116],mortality,[5],at least 50%
same,mortality,[6],at least 50%
CC(C)(CC#N)Nc1nc(-c2ccc(Cl)cc2)nc2cc(C(F)(F)F)ccc12 [I-122],mortality,[5],at least 50%
same,mortality,[3],at least 50%
CSCC(C)Nc1nc(-c2ccc(Cl)cc2)nc2cc(C(F)(F)F)ccc12 (stereo not drawn) [I-131],mortality in comparison with untreated controls,[7],at least 50%
same,mortality in comparison with untreated controls,[2],at least 50%
FC(F)(F)c1ccc2c(NCC3CC3c3ccccc3)nc(-c3ccc(Cl)cc3)nc2c1 (stereo not drawn) [I-164],mortality,[3],at least 50%
CCC1CC1CNc1nc(-c2ccc(Cl)cc2)nc2cc(C(F)(F)F)ccc12 (stereo not drawn) [I-165],mortality,[1],at least 50%
same,mortality,[3],at least 50%
CCNc1nc(-c2ccc(Cl)cc2C(F)(F)F)nc2cc(C(F)(F)F)ccc12 [I-217],mortality,[1],at least 50%
same,mortality,[3],at least 50%
CCNc1nc(-c2ccc(Cl)cc2Cl)nc2cc(C(F)(F)F)ccc12 [I-220],mortality,[3],at least 50%
CCCNc1nc(-c2cccc(C)n2)nc2cc(C(F)(F)F)ccc12 [I-242],mortality in comparison with untreated controls,[7],at least 50%
CCNc1nc(-c2cccc(C)n2)nc2cc(C(F)(F)F)ccc12 [I-243],mortality in comparison with untreated controls,[7],at least 50%
same,mortality,[6],at least 50%
CCCNc1nc(-c2ccc(/C=N\OC(C)C)cc2)nc2cc(C(F)(F)F)ccc12 [I-244],mortality in comparison with untreated controls,[8],at least 50%
same,mortality in comparison with untreated controls,[9],at least 50%
CCNc1nc(-c2ccc(Cl)cc2C)nc2cc(C(F)(F)F)ccc12 [I-261],mortality,[5],at least 50%
same,mortality,[6],at least 50%
CCCNc1nc(-c2ccc(CNS(C)(=O)=O)cc2)nc2cc(C(F)(F)F)ccc12 [I-274],mortality,[1],at least 50%
CCCNc1nc(-c2ccc(C(=O)NOC)cc2)nc2cc(C(F)(F)F)ccc12 [I-279],mortality,[1],at least 50%
CCCNc1nc(-c2ccc(C(=O)N(C)C)cc2)nc2cc(C(F)(F)F)ccc12 [I-285],mortality in comparison with untreated controls,[2],at least 50%
same,mortality,[6],at least 50%
CCCNc1nc(-c2ccc(C(=O)NCC)cc2)nc2cc(C(F)(F)F)ccc12 [I-286],mortality,[1],at least 50%
CCCNc1nc(-c2ccc(C(C)=O)cc2)nc2cc(C(F)(F)F)ccc12 [I-288],mortality,[1],at least 50%
CCCNc1nc(-c2ccc(S(=O)(=O)CC)cc2)nc2cc(C(F)(F)F)ccc12 [I-289],mortality,[1],at least 50%
same,mortality,[6],at least 50%
CCCNc1nc(-c2ccc(C(=O)Nc3ccc(F)cc3)cc2)nc2cc(C(F)(F)F)ccc12 [I-296],mortality,[1],at least 50%
same,mortality in comparison with untreated controls,[2],at least 50%
Nc1cc(C(F)(F)F)ccc1-c1nc(N)c2ccc(C(F)(F)F)cc2n1 [I-402],mortality,[1],at least 50%
CC(C)N(c1nc(-c2ccc(F)cc2)nc2cc(C(F)(F)F)ccc12)C1CC1 [I-434],mortality in comparison with untreated controls,[7],at least 50%
same,mortality,[4],at least 50%
Nc1nc(-c2ccc(Br)cc2)nc2cc(C(F)(F)F)ccc12 [I-435],mortality,[5],at least 50%
same,mortality,[6],at least 50%
CCNc1nc(-c2ccc(Cl)cc2)nc2cc(OC(F)(F)F)ccc12 [I-436],mortality,[5],at least 50%
same,mortality,[1],at least 50%
COC(OC)C(C)Nc1nc(-c2ccc(F)cc2F)nc2cc(C(F)(F)F)ccc12 (stereo not drawn) [I-442],mortality in comparison with untreated controls,[9],at least 50%
